Values from PubChem BioAssay AID1259424 (University of Nebraska Medical Center, 2018).
The deposit covers about 14,000 reagents; this is a part drawn at random. 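Higher correlation or smaller distance means closer resemblance to KSR1 loss; control wells, including KSR1 knockdowns, recur on many plates.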 Not stated in the record: the time to read-out.

Test: 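Rank knockdowns across the genome by resemblance to the KSR1 depletion profile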 (primary screen)
Cells: human HCT116 colon cancer cells
Reagent: siRNA pool against human genes, 50 nM
Measurement: 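Six signature mRNAs by branched-DNA multiplex assay, scaled to two housekeeping genes and non-targeting median, log2; matched to mean KSR1 knockdown profile by Pearson correlation and euclidean distance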
Reading the numbers: mean correlation with KSR1 profile and KSR1 correlation: higher = expression change more like KSR1 knockdown; mean distance from KSR1 profile: higher = expression change less like KSR1 knockdown

The opening 3 entries, ahead of the listing:
mean correlation with KSR1 profile	mean distance from KSR1 profile	KSR1 correlation, replicate 1	KSR1 correlation, replicate 2	KSR1 correlation, replicate 3	gene
0.288	1.79	0.532	0.376	0.298	PRDM1 (PR/SET domain 1)
-0.682	2.27	-0.47	-0.753	-0.648	CUL2 (cullin 2)
-0.292	3.84	-0.0988	-0.379	-0.378	SPOP (speckle type BTB/POZ protein)

Main list, repeating the preview:
mean correlation with KSR1 profile	mean distance from KSR1 profile	KSR1 correlation, replicate 1	KSR1 correlation, replicate 2	KSR1 correlation, replicate 3	gene
0.288	1.79	0.532	0.376	0.298	PRDM1 (PR/SET domain 1)
-0.682	2.27	-0.47	-0.753	-0.648	CUL2 (cullin 2)
-0.292	3.84	-0.0988	-0.379	-0.378	SPOP (speckle type BTB/POZ protein)
0.519	1.65	0.469	0.342	0.328	DCAF16 (DDB1 and CUL4 associated factor 16)
-0.255	3.18	-0.217	-0.509	-0.519	PADI1 (peptidyl arginine deiminase 1)
0.0456	1.94	0.175	-0.16	0.0956	LTB (lymphotoxin beta)
-0.357	2.36	-0.34	-0.47	-0.226	MLANA (melan-A)
-0.111	4.76	-0.0249	-0.0375	-0.327	CRTC1 (CREB regulated transcription coactivator 1)
-0.00163	1.4	0.171	-0.204	-0.0896	VGF (VGF nerve growth factor inducible)
-0.385	2.27	-0.207	0.395	-0.649	TOP6BL (TOP6B like initiator of meiotic double strand breaks)
-0.161	1.8	0.188	-0.0644	-0.212	AGMAT (agmatinase (putative))
0.246	3.13	0.342	0.28	0.138	ZNF669 (zinc finger protein 669)
-0.661	2.19	-0.723	-0.589	-0.258	MOB4 (MOB family member 4, phocein)
0.111	1.75	0.0872	-0.193	0.314	KCNH2 (potassium voltage-gated channel subfamily H member 2)
0.194	1.84	-0.184	0.401	0.214	S100A13 (S100 calcium binding protein A13)
0.501	1.5	0.418	0.575	0.218	PRF1 (perforin 1)
0.171	1.84	0.329	-0.00273	0.119	RNF2 (ring finger protein 2)
-0.0321	3.35	-0.19	-0.172	0.0742	ZNF286A (zinc finger protein 286A)
0.0258	2.38	-0.0841	0.0391	0.485	WDR6 (WD repeat domain 6)
0.227	1.44	0.567	0.853	-0.536	WASF3 (WASP family member 3)
-0.524	2.46	-0.395	-0.429	-0.41	SIRPA (signal regulatory protein alpha)
0.362	1.02	0.348	-0.0542	-0.33	TIMM10B (translocase of inner mitochondrial membrane 10B)
0.267	1.33	-0.31	0.511	0.456	ACADSB (acyl-CoA dehydrogenase short/branched chain)
0.689	1.44	0.689	0.486	0.431	AP5S1 (adaptor related protein complex 5 subunit sigma 1)
0.476	4.13	0.537	0.625	0.122	SLC75A1
-0.103	3.71	-0.374	-0.129	0.0617	ATP8B2 (ATPase phospholipid transporting 8B2)
-0.568	3.18	-0.569	-0.42	-0.828	ARSA (arylsulfatase A)
0.417	1.87	0.354	0.441	0.0647	REG3A (regenerating family member 3 alpha)
-0.259	2.3	-0.352	-0.377	-0.0923	CPLANE1 (ciliogenesis and planar polarity effector complex subunit 1)
-0.09	2.08	-0.0682	-0.215	0.0297	HCN3
-0.355	2.2	-0.364	-0.422	-0.305	SQLE (squalene epoxidase)
-0.0641	2.66	0.043	-0.228	-0.0114	KRT76 (keratin 76)
-0.183	2.46	-0.0521	0.234	-0.0839	COPZ2 (coat protein complex I subunit zeta 2)
-0.229	2.53	-0.111	-0.384	-0.409	ATF2 (activating transcription factor 2)
